According to the supplement of paper PMC10849652:
The other results are listed elsewhere or left out.

Sequences of proteins named here, by UniProt entry; tags and fusion partners are left off. A change or cut given only in a name is not applied to a line headed by its entry.
UniProt Q9BXH1: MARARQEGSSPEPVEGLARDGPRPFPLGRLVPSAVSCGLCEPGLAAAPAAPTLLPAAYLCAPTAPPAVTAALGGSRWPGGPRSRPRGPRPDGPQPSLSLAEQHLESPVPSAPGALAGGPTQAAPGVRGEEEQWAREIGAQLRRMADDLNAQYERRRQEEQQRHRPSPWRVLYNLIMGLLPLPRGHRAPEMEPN
UniProt P51572: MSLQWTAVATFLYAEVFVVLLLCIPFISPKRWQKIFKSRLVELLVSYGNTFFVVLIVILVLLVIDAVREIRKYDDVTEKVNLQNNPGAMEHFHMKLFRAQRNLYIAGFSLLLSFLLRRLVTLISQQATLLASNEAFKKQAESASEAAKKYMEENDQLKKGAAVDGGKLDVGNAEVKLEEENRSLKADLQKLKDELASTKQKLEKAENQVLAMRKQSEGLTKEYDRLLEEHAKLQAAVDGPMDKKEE
UniProt Q92994: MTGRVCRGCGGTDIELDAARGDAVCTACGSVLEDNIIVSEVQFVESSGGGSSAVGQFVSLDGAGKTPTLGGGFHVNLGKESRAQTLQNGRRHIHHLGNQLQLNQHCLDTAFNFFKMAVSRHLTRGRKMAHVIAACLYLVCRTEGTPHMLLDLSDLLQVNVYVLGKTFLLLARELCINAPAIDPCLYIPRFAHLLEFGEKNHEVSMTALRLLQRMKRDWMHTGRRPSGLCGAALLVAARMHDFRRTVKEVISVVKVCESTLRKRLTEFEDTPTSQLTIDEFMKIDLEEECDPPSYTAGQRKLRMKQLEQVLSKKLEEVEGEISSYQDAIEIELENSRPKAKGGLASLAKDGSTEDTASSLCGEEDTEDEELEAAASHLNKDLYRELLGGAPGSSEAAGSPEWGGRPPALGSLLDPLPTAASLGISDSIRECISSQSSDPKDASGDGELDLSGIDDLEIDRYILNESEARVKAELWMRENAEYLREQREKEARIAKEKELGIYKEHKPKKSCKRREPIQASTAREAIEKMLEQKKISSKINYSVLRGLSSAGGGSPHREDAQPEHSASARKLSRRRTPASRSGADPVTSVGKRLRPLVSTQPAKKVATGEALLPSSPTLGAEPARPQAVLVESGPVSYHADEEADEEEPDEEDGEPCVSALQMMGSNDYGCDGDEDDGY
UniProt O43505: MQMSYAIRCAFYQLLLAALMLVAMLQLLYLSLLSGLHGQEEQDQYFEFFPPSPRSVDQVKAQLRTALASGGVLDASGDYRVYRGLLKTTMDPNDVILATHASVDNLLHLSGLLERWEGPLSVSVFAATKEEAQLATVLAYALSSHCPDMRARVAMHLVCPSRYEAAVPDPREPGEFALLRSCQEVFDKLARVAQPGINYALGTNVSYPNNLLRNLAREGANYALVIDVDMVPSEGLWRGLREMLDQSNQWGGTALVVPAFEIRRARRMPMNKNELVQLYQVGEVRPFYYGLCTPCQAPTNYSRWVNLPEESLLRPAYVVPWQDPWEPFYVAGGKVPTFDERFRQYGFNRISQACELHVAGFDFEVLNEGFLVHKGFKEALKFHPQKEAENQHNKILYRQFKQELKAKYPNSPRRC
UniProt Q5T5X7: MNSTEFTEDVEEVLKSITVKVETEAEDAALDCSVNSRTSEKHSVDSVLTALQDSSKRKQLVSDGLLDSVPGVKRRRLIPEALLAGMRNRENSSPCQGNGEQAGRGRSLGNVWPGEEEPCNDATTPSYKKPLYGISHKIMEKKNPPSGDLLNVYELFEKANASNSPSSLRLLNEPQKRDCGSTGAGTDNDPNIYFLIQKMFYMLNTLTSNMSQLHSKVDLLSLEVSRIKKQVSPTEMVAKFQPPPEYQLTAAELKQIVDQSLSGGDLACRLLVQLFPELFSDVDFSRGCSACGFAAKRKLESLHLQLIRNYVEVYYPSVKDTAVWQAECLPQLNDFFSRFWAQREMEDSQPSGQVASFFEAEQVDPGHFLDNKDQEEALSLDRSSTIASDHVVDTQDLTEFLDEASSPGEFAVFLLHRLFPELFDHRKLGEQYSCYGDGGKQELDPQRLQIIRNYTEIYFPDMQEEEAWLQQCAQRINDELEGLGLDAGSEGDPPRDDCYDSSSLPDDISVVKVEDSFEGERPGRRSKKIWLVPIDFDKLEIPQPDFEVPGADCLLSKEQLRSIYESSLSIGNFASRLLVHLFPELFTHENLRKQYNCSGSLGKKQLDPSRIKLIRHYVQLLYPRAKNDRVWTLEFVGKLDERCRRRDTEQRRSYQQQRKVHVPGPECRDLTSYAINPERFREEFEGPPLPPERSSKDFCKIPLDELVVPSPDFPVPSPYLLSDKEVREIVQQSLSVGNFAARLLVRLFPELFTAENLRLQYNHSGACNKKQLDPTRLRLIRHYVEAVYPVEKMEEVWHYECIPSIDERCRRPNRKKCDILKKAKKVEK
UniProt Q96DR5: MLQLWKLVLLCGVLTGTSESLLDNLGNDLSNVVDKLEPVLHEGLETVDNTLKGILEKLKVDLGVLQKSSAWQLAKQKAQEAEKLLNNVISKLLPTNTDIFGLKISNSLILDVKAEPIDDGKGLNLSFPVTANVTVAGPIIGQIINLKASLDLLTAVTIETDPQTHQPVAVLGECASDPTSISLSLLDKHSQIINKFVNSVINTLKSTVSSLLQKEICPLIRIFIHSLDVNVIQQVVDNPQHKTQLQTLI
UniProt Q9P281: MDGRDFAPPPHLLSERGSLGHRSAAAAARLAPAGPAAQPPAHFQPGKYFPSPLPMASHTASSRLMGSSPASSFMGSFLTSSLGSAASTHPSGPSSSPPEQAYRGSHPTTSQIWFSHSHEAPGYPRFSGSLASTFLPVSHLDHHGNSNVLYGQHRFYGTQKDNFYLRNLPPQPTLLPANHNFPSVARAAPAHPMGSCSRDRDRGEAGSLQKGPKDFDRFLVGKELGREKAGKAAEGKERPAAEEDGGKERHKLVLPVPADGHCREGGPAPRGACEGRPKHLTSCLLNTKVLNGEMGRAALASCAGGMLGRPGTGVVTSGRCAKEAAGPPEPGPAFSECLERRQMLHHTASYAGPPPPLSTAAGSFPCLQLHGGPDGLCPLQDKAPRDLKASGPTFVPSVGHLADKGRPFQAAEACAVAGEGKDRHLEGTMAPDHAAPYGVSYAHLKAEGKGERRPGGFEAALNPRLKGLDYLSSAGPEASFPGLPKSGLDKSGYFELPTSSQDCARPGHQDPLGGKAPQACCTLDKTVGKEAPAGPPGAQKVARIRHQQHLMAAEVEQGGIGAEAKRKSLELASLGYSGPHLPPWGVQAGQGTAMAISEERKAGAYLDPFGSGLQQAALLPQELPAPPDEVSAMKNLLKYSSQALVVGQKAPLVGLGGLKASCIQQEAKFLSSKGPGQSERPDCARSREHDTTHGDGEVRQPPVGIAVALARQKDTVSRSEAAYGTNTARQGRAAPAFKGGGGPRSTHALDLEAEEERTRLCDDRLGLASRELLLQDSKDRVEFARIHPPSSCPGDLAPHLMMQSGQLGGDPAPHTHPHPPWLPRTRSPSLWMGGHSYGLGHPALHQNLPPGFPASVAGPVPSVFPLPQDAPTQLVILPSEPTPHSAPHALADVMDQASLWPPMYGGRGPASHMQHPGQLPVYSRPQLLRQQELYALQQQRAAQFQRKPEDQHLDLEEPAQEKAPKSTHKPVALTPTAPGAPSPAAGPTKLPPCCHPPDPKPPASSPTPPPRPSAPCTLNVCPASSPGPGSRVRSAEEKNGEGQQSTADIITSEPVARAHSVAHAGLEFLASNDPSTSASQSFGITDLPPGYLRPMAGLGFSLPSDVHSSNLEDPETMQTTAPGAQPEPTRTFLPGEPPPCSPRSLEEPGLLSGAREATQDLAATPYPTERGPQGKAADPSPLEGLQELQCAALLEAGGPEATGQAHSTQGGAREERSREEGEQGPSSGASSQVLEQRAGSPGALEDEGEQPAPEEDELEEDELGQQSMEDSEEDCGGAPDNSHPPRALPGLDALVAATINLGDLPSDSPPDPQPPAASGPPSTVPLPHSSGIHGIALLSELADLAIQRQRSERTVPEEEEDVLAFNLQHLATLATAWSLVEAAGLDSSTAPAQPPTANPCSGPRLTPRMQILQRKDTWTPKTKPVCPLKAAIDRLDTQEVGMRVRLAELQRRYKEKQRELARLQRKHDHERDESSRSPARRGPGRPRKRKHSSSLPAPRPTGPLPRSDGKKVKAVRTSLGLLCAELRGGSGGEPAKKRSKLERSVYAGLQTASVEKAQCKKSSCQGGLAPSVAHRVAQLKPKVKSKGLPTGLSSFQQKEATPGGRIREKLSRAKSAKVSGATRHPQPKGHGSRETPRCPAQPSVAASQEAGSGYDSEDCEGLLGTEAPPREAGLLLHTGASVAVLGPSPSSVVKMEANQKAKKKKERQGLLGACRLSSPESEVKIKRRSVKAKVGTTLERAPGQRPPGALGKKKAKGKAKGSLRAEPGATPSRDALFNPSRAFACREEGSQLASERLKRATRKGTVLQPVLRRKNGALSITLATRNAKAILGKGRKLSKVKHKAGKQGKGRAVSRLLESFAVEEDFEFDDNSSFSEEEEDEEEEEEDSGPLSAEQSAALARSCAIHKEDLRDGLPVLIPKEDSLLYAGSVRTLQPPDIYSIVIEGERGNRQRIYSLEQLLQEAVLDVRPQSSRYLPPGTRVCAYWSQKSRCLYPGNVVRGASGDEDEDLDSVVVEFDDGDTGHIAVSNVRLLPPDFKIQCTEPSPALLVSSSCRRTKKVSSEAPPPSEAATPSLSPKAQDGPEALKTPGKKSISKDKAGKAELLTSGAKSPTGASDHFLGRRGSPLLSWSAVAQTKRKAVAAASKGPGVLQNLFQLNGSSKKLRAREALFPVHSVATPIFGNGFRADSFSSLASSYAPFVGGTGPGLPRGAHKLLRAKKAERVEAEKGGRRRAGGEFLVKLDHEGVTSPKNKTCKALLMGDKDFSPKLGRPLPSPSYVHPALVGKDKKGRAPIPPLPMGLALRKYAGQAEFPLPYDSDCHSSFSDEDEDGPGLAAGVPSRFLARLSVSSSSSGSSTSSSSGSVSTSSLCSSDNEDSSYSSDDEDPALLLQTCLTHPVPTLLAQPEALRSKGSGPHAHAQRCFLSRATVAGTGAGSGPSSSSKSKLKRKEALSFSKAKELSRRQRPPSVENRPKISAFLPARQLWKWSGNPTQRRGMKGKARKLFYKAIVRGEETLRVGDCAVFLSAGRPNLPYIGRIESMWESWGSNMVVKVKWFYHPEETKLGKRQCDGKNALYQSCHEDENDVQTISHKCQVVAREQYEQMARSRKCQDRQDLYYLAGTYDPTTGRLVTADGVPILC
UniProt Q96G97: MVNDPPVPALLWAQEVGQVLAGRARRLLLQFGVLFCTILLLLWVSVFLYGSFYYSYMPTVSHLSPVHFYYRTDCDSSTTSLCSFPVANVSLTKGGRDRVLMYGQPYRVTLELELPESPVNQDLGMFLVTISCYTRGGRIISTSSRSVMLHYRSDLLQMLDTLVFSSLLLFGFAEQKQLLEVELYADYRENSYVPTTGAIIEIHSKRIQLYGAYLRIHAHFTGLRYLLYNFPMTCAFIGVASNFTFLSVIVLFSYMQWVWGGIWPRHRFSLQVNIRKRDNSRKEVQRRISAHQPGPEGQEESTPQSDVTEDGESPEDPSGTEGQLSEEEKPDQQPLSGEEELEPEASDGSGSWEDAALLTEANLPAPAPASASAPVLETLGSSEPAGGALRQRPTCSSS
UniProt Q06187: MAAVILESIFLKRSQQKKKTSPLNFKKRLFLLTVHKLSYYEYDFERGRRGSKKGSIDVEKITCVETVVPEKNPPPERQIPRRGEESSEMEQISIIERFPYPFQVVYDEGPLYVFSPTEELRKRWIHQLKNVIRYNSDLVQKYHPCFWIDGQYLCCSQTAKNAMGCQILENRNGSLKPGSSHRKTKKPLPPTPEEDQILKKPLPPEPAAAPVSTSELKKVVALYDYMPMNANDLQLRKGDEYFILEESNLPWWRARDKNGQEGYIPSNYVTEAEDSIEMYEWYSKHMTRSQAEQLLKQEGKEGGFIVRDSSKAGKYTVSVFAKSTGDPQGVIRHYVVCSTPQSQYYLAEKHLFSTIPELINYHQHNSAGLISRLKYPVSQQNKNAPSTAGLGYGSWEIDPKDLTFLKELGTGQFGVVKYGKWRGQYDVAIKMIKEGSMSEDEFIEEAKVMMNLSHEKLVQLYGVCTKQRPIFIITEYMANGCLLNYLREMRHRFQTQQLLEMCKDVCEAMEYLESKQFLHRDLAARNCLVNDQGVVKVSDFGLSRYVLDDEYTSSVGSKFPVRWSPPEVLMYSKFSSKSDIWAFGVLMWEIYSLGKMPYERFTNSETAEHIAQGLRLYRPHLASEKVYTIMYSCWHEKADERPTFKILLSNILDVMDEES
UniProt Q9NQY0: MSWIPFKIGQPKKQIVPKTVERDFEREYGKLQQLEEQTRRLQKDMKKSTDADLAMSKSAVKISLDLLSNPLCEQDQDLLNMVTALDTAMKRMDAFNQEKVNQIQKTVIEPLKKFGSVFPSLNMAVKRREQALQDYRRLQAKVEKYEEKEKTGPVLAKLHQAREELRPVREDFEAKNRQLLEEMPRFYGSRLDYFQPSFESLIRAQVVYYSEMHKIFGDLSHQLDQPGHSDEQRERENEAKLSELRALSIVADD

How the values were obtained:
Experiment in all cases: log2 fold change, soluble protein after heating vs DMSO (PISA); higher = thermal stabilisation; K562 lysate, 10 uM; active = over 0.2 and 3.5 SD of the protein, either way, in both replicates (recomputed)
erlotinib = compound: C#Cc1cccc(Nc2ncnc3cc(OCCOC)c(OCCOC)cc23)c1 [erlotinib]
In short: (§1)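 Log-two fold change in thermal stability relative to solvent controls is reported from duplicates. For each sample, crude K562 extract from dounce-homogenised pellets in PBS pH 7.4 with 1 mM MgCl2, at 1 mg/mL protein, was treated with 10 μM compound for 30 min. Aliquots heated for 3 min across 48°C-58°C were pooled, brought to 0.5% NP-40 at 4°C and cleared at 21,000xg for 90 min. The supernatant was quantified by TMTpro 16plex LC-MS/MS with channel sums equalised.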

[1] = compound: C/C(=N\NC(=O)C1=CC(=CC=C1)S(=O)(=O)N2CCOCC2)/C3=C(C=CC(=C3)Cl)O
In short: as §1

[2] = compound: C1=CC(=CC=C1C2=NC3=C(N2)C=C(C=C3)C(=O)N)OC4=CC=C(C=C4)Cl
In short: as §1

[3] = compound: C1=CC2=C(C=CC(=C2)/C=C\3/C(=O)NC(=NCC4=CC=CS4)S3)N=C1
In short: as §1

[4] = compound: C1=CC2=NC=CN=C2C=C1/C=C/3\C(=O)NC(=O)S3
In short: as §1

[5] = compound: C1=CC=C(C=C1)C2=NC(=C(N2)C3=CC=NC=C3)C4=CC(=C(C=C4)Cl)O
In short: as §1

[6] = compound: C1=CC=C2C(=C1)C3=NNC4=CC=CC(=C43)C2=O
In short: as §1

[7] = compound: C1CCN(C1)C(=O)NC2=CC=CC(=C2)NC3=NC=C(C(=N3)NCCC4=CN=CN4)Br
In short: as §1

[8] = compound: C1CN(CCC1(CC2=CC=C(C=C2)Cl)N)C3=NC=NC4=C3C=CN4
In short: as §1

IRAK-1-4 Inhibitor I = compound: C1COCCN1CCN2C3=CC=CC=C3N=C2NC(=O)C4=CC(=CC=C4)[N+](=O)[O-] [IRAK-1-4 Inhibitor I]
In short: as §1

ibrutinib = compound: C=CC(=O)N1CCC[C@@H](n2nc(-c3ccc(Oc4ccccc4)cc3)c3c(N)ncnc32)C1 [ibrutinib]
In short: as §1

[9] = compound: CC(=O)c1cnc2ccc(-c3cc(Cl)c(O)c(Cl)c3)nc2c1N[C@H]1CC[C@H](CN(C)C)CC1
In short: as §1

ralimetinib = compound: CC(C)(C)Cn1c(N)nc2ccc(-c3[nH]c(C(C)(C)C)nc3-c3ccc(F)cc3)nc21 [ralimetinib]
In short: as §1

[10] = compound: CC(C)(O)CC(=O)NCCn1ccc2ncnc(Nc3ccc(Oc4cccc(C(F)(F)F)c4)c(Cl)c3)c21
In short: as §1

[11] = compound: CC(C)C1=C2N=C(C=C(N2N=C1)NCC3=CC=CC=C3)NCCCCCCN
In short: as §1

[12] = compound: CC1=C(C(CC(=O)N1)C2=CC=C(C=C2)C(F)(F)F)C(=O)NC3=C(C=C4C(=C3)C=NN4)F
In short: as §1

[13] = compound: CC1=C(C2=C(C=C1)C(=O)C3=CC=CC=C3N2CCCN)C
In short: as §1

[14] = compound: CC1=C(C=C(C=C1)NC(=O)C2=CC(=CC=C2)C(C)(C)C#N)NC3=CC4=C(C=C3)N=CN(C4=O)C
In short: as §1

[15] = compound: CC1=C(C=C(C=C1)NC(=O)C2=CC(=CC=C2)N(C)C)NC(=O)C3=CC=C(C=C3)O
In short: as §1

[16] = compound: CC1=CC=C(C=C1)SC2=C3C=C(SC3=CN=C2)C(=O)N
In short: as §1

Measured: log2 fold change

BPNT1 (UniProt O95861)
inactive: erlotinib 0.004 | [1] 0.026 | [2] -0.018 | [3] 0.003 | [4] -0.001 | [5] 0.012 | [6] 0.024 | [7] 0.016 | [8] 0.036 | IRAK-1-4 Inhibitor I 0.017 | ibrutinib -0.001 | [9] -0.025 | ralimetinib 0.01 | [10] 0.018 | [11] -0.029 | [12] -0.064 | [13] 0.002 | [14] 0.045 | [15] -0.038 | [16] 0.008

BBC3 (UniProt Q9BXH1)
inactive: erlotinib -0.068 | [1] 0.041 | [2] 0.075 | [3] 0.07 | [4] -0.01 | [5] -0.048 | [6] -0.096 | [7] -0.04 | [8] 0.058 | IRAK-1-4 Inhibitor I -0.16 | ibrutinib 0.038 | [9] 0.016 | ralimetinib 0.162 | [10] 0.126 | [11] -0.026 | [13] 0.191 | [14] -0.025 | [15] 0.006 | [16] -0.072

BCAP31 isoform 2 (UniProt P51572)
inactive: erlotinib -0.039 | [1] 0.006 | [2] -0.026 | [3] -0.013 | [4] -0.017 | [5] 0.035 | [6] 0.007 | [7] 0.001 | [8] -0.007 | IRAK-1-4 Inhibitor I -0.005 | ibrutinib -0.007 | [9] -0.012 | ralimetinib -0.024 | [10] 0.025 | [11] -0.011 | [12] 0.015 | [13] 0.009 | [14] -0.049 | [15] 0.005 | [16] -0.001

BRF1 (UniProt Q92994)
inactive: erlotinib -0.045 | [1] -0.023 | [2] 0.008 | [3] 0.076 | [4] -0.053 | [5] -0.159 | [6] -0.01 | [7] 0.064 | [8] -0.128 | IRAK-1-4 Inhibitor I 0.063 | ibrutinib 0.047 | ralimetinib -0.034 | [10] 0.016 | [11] -0.115 | [12] 0.285 | [13] 0.055 | [14] 0.03 | [15] -0.123

B4GAT1 (UniProt O43505)
inactive: erlotinib 0.063 | [2] 0.098 | [4] 0.175 | [5] -0.087 | IRAK-1-4 Inhibitor I 0.386 | ibrutinib 0.241 | ralimetinib 0.18 | [10] 0.384 | [11] -0.13 | [12] -0.173 | [13] -0.212 | [14] -0.05 | [15] 0.142

BEND3 (UniProt Q5T5X7)
inactive: erlotinib 0.061 | [1] -0.19 | [2] -0.148 | [3] 0.095 | [5] 0.126 | [6] -0.203 | [7] -0.011 | [8] 0.026 | IRAK-1-4 Inhibitor I 0.027 | [9] 0.025 | ralimetinib -0.001 | [10] 0.015 | [11] 0.104 | [13] -0.118 | [14] 0.005 | [15] 0.017 | [16] -0.058

BLOC1S2 (UniProt Q6QNY1)
inactive: erlotinib -0.076 | [1] -0.176 | [2] 0.022 | [3] 0.011 | [4] -0.077 | [6] -0.026 | [7] 0.023 | [8] 0.123 | ibrutinib 0.144 | [9] -0.038 | [11] 0.043 | [12] 0.001 | [13] 0.004 | [14] 0.166 | [16] -0.056

BNIP3 (UniProt Q12983)
inactive: erlotinib -0.008 | [2] 0.036 | [4] -0.013 | [5] 0.028 | [7] 0.031 | [8] 0.02 | IRAK-1-4 Inhibitor I 0.057 | ibrutinib 0.04 | [9] 0.048 | ralimetinib 0.032 | [10] 0.01 | [11] -0.002 | [12] -0.068 | [13] -0.002 | [14] 0.045 | [15] -0.047 | [16] 0.003

BRD2 isoform 2 (UniProt P25440)
inactive: erlotinib -0.039 | [2] 0.02 | [3] 0.036 | [4] 0 | [5] 0.109 | [6] -0.014 | [7] -0.134 | [8] -0.114 | IRAK-1-4 Inhibitor I 0.003 | ibrutinib 0.074 | [9] -0.041 | ralimetinib -0.056 | [10] 0.021 | [11] 0.26 | [12] -0.025 | [13] 0.008 | [14] 0.056 | [15] 0.049 | [16] 0.105

BPIFA2 (UniProt Q96DR5)
inactive: erlotinib -0.404 | [2] -0.039 | [4] -0.303 | [7] -0.058 | [8] -0.911 | ibrutinib -0.056 | [11] -0.079 | [12] 2.06

BTBD1 (UniProt Q9H0C5)
inactive: erlotinib 0.05 | [1] -0.017 | [2] 0.009 | [3] 0.032 | [4] 0.123 | [6] -0.148 | [7] 0.163 | [8] 0.14 | ibrutinib 0.022 | [11] -0.167 | [12] -0.027

BAHCC1 (UniProt Q9P281)
inactive: erlotinib -0.047 | [1] 0.026 | [2] 0.076 | [3] -0.126 | [6] -0.009 | [7] -0.101 | [8] -0.11 | [9] -0.045 | [11] -0.018 | [12] -0.114 | [13] -0.008 | [14] 0.013 | [16] 0.074

BSCL2 isoform 4 (UniProt Q96G97)
inactive: erlotinib 0.014 | [2] -0.093 | [5] -0.166 | IRAK-1-4 Inhibitor I 0 | [9] -0.213 | ralimetinib 0.167 | [10] 0.043 | [11] 0.027 | [12] -0.091 | [14] 0.015 | [15] -0.124 | [16] 0.023

BEGAIN, A0A1B0GVM0
inactive: erlotinib 0.086 | [2] -0.053 | [5] -0.015 | [7] 0.01 | [8] -0.026 | IRAK-1-4 Inhibitor I -0.008 | ralimetinib -0.082 | [10] 0.047 | [11] -0.023 | [12] -0.032 | [14] 0.064 | [15] -0.064

BCL9 (UniProt O00512)
inactive: erlotinib -0.131 | [1] 0.177 | [2] -0.01 | [3] -0.106 | [4] 0.125 | [5] -0.096 | [6] -0.114 | IRAK-1-4 Inhibitor I 0.27 | ibrutinib 0.043 | ralimetinib 0.009 | [10] -0.288 | [11] 0.056 | [14] -0.053 | [15] 0.055

BRMS1 (UniProt Q9HCU9)
inactive: erlotinib -0.014 | [1] -0.006 | [2] 0.037 | [3] 0.028 | [5] 0.061 | [6] 0.133 | [7] 0.041 | [8] 0.046 | IRAK-1-4 Inhibitor I 0.099 | [9] -0.026 | ralimetinib 0.05 | [10] -0.127 | [11] 0.017 | [12] -0.007 | [13] -0.012 | [14] -0.089 | [15] 0.04 | [16] -0.014

BTK isoform 2 (UniProt Q06187)
inactive: erlotinib 0.002 | [1] 0.017 | [2] -0.046 | [3] 0.031 | [4] 0.025 | [5] -0.005 | [6] -0.05 | [7] 0.077 | [8] -0.052 | IRAK-1-4 Inhibitor I -0.017 | [9] 0.012 | ralimetinib 0.014 | [10] 0.02 | [11] -0.01 | [12] 0.005 | [13] -0.032 | [14] 0.055 | [15] 0.042 | [16] -0.011

BIN3 (UniProt Q9NQY0)
inactive: erlotinib -0.188 | [2] 0.063 | [4] -0.04 | [5] -0.022 | IRAK-1-4 Inhibitor I -0.019 | ibrutinib 0.012 | ralimetinib 0.087 | [10] 0.001 | [11] -0.17 | [13] 0.059 | [14] 0.194 | [15] -0.028

BIRC6, A0A3B3IUB9
inactive: erlotinib 0.024 | [1] 0.069 | [2] -0.052 | [3] 0.002 | [5] -0.131 | [6] 0.051 | [7] -0.058 | [8] 0.04 | IRAK-1-4 Inhibitor I 0.13 | [9] -0.077 | ralimetinib -0.089 | [10] -0.4 | [11] 0.154 | [13] 0.034 | [14] -0.01 | [15] 0.014 | [16] 0.12

BAK1 (UniProt Q16611)
inactive: erlotinib 0.145 | [1] -0.089 | [2] -0.178 | [3] -0.053 | [5] 0.152 | [6] -0.116 | [7] -0.119 | [8] 0.04 | IRAK-1-4 Inhibitor I 0.278 | [9] 0.037 | ralimetinib 0.073 | [10] -0.107 | [11] -0.016 | [13] -0.128 | [14] -0.122 | [15] 0.115 | [16] 0.094

Reprinted from the listing (2 entries):
BIN3 (UniProt Q9NQY0)
inactive: erlotinib -0.188 | [2] 0.063 | [4] -0.04 | [5] -0.022 | IRAK-1-4 Inhibitor I -0.019 | ibrutinib 0.012 | ralimetinib 0.087 | [10] 0.001 | [11] -0.17 | [13] 0.059 | [14] 0.194 | [15] -0.028

BIRC6, A0A3B3IUB9
inactive: erlotinib 0.024 | [1] 0.069 | [2] -0.052 | [3] 0.002 | [5] -0.131 | [6] 0.051 | [7] -0.058 | [8] 0.04 | IRAK-1-4 Inhibitor I 0.13 | [9] -0.077 | ralimetinib -0.089 | [10] -0.4 | [11] 0.154 | [13] 0.034 | [14] -0.01 | [15] 0.014 | [16] 0.12
